# PubChem BioAssay AID1259405, NCATS, 2018
# Purpose: 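Silenced genes that increase secreted GFP made by CHO cells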 (primary screen)
# Cell system: Chinese hamster CHO-K1 ovary cells with stable secreted eGFP expression
# Knock-down reagent: single siRNA against mouse genes, 0.8 pmol siRNA per well (2 µl of 400 nM stock)
# Timing: 3 days
# Read-out: 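Per-well intracellular GFP measured by laser scanning cytometry, plus viability from ATP luminescence, each relative to plate median of non-targeting control wells, in %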
# Reading the numbers: GFP, % of control: higher = more GFP per well, higher productivity; viability (ATP), % of control: higher = more viable cells (more ATP)
# Hit rule: 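Called active when intracellular GFP, relative to negative control, is at or above 120%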
# This is one part, drawn at random, of about 50,000 reagents tested. Of all reagents, about 4,000 (8%) got an active call. 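Mouse siRNA library applied to hamster cells; one well for each siRNA.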 Entries without a mark were called inactive. Reagents against one gene are numbered here.
gene,reagent,"GFP, % of control","viability (ATP), % of control"
Cfi (complement component factor i),1,67.7,124
Cfi (complement component factor i),2,46.1,50.1
Chmp5 (charged multivesicular body protein 5),1,73.1,58.6
Chmp5 (charged multivesicular body protein 5),2,84.7,98.4
Chmp5 (charged multivesicular body protein 5),3,68.1,74.7
Ubqlnl (ubiquilin-like),1,197 (active),94.1
Ubqlnl (ubiquilin-like),2,46.1,31
Ubqlnl (ubiquilin-like),3,85.4,98.9
E2f3 (E2F transcription factor 3),1,70.3,74.9
E2f3 (E2F transcription factor 3),2,112,80.9
Pex11g (peroxisomal biogenesis factor 11 gamma),1,66.9,53.7
Pex11g (peroxisomal biogenesis factor 11 gamma),2,90.5,62.8
Pex11g (peroxisomal biogenesis factor 11 gamma),3,53.8,56.6
Tmem150c (transmembrane protein 150C),1,24.7,74.8
Tmem150c (transmembrane protein 150C),2,68.6,77.3
Tmem150c (transmembrane protein 150C),3,189 (active),160
"Col18a1 (collagen, type XVIII, alpha 1)",1,90.5,135
"Col18a1 (collagen, type XVIII, alpha 1)",2,88.3,94.4
Zfp410 (zinc finger protein 410),1,66.4,66.6
Zfp410 (zinc finger protein 410),2,90.5,71.5
Zfp410 (zinc finger protein 410),3,70.2,23.1
Mtg2 (mitochondrial ribosome associated GTPase 2),1,71.1,72.4
Mtg2 (mitochondrial ribosome associated GTPase 2),2,80.4,84.6
Mtg2 (mitochondrial ribosome associated GTPase 2),3,106,109
Cpq (carboxypeptidase Q),1,65.9,89.9
Cpq (carboxypeptidase Q),2,104,87.6
Cpq (carboxypeptidase Q),3,67.5,63.7
"Thsd1 (thrombospondin, type I, domain 1)",1,79.5,86.1
"Thsd1 (thrombospondin, type I, domain 1)",2,107,93.5
"Thsd1 (thrombospondin, type I, domain 1)",3,84.5,87.3
Slc1a7,1,61.8,70.8
Slc1a7,2,78.9,37.9
Slc1a7,3,74.2,104
Spata31f3 (spermatogenesis associated 31 subfamily F member 3),1,62.2,60.6
Spata31f3 (spermatogenesis associated 31 subfamily F member 3),2,76.3,73
Spata31f3 (spermatogenesis associated 31 subfamily F member 3),3,113,117
